Measurements published in PMC3696110, “Hsp70 Oligomerization Is Mediated by an Interaction between the Interdomain Linker and the Substrate-Binding Domain” (PLoS ONE, 2013).
These are yes or no findings as the source states them, for the method shown. Some results given as binding are weak or reduced against the parent protein; the word gives no strength.

Sequences of proteins named here, by UniProt entry; tags and fusion partners are left off. A change or cut given only in a name is not applied to a line headed by its entry. Residues count along the entry.
UniProt P0DMV8, residues 394-641: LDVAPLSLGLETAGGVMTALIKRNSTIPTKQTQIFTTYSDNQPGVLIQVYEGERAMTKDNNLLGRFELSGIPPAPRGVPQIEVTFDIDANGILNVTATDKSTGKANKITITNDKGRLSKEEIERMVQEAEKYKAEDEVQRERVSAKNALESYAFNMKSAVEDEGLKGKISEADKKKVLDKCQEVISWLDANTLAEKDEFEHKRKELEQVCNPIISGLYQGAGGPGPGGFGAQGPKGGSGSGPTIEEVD

Target: ΔLSBD641 (human Hsp70 residues 394-641) (human) (UniProt P0DMV8)
Assay: other fluorescence titration; fluorescence competition assay: 50 µM ΔLSBD641 and 2 µM dansylated NR peptide with 0, 50 or 200 µM non-dansylated NR peptide; Tris 50 mM, pH 7.4, 150 mM KCl, 5 mM MgCl2; 1 h at room temperature; dansyl emission after excitation at 330 nm; both purified

Row | Binder | binding
1 | NRLLLTG [NR peptide (NRLLLTG), non-dansylated] | binds
2 | NRLLLTG (dansyl on the N-terminus) [dansyl-NR peptide (NRLLLTG, N-terminally labelled with dansyl)] | binds
